Results reported in patent US12358867B1, “Peptoid-based inhibitors of the protein arginine methyltransferase (PRMT) family” (University of North Florida Board of Trustees, priority 2020, dated 2025).
For some of these results: Part of at least one peptide drawing is inferred or uncertain, most often the ends. For some of these results: At least one compound was matched to its structure with a doubt left. Some entries share one result that the patent states for a list of compounds. Starred links: 1 amine or outer side, 2 acyl side, 3 side chain; linkers in the order of their positions; H or OH if unused. Non-standard residues stand in square brackets, D forms with d. Residues, ends and D or L forms follow the SMILES beside them. Gly(N-(CH2)3-guanidino) = N=C(N)NCCCNCC(=O)O; X2 = N=C(CCl)NCCC[C@H](N[*:1])C(=O)[*:2]; X1 = N=C(CCl)NCCCN(CC(=O)[*:2])[*:1]; Gly(N-CH2CH2OH) = O=C(O)CNCCO; Nleu = CC(C)CNCC(=O)O; Nlys = NCCCCNCC(=O)O; Sar = CNCC(=O)O

The chains behind the UniProt entries cited, without tags or fusion partners. Residues count along the entry.
UniProt Q99873, 1-353 isoform Q99873-3, species assumed: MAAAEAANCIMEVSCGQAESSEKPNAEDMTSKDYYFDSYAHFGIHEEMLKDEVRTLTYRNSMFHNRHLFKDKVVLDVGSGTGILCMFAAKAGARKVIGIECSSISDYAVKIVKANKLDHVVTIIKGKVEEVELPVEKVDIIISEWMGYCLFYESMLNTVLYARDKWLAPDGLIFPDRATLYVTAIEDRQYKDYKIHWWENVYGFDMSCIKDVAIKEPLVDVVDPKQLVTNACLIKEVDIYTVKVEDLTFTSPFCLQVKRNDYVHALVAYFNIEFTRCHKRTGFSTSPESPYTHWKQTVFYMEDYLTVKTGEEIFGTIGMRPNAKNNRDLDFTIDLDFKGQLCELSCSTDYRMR

Key:
[1] = molecular target: PRMT5; test: IC50 assay, MTase-Glo Methyltransferase assay; format: biochemical; conditions: substrate AcH4-21 225 μM
[2] = molecular target: T1, PRMT1 (Homo sapiens, UniProt Q99873); test: IC50 assay, MTase-Glo Methyltransferase assay; format: biochemical; conditions: warhead peptides and warhead peptoids (Example 2); substrate AcH4-21 225 μM
T1 construct: made in house
Protocol: The efficacy of the peptoid inhibitors was probed using the MTase-Glo Methyltransferase assay kit. Various concentrations (0-1000 μM) of peptoid was incubated in assay buffer (20 mM Tris-HCl pH 8.0, 50 mM NaCl, 1 mM EDTA, 3 mM MgCl2, 0.1 mg/ml BSA, 1 mM DTT) at 37° C. for 10 min. Afterward, the inhibitor was allowed to interact with 200 nM PRMT1 for 15 min at 37° C. The reaction was catalyzed with 225 μM of AcH4-21 (a PRMT1 peptide substrate), continued for 15 min at 37° C., was quenched with the addition of 0.5% TFA (0.1% final concentration, 10 min, r.t.), followed by the addition of MTase-Glo Reagent to a final concentration of 1×. After 30-min incubation at r.t., MTase-Glo Detection Solution was added and incubated for 30 min at r.t. Luminescence signal was converted to product concentration using SAH standards (0-5 μM), following the above assay. Immediately afterwards, the luminescence signal was read with a BioTek Synergy 2 Multi-Mode Microplate Reader. IC50 values were determined by fitting the data to equation (2) using GraFit version 7.03. […]
The IC50 value for the peptoid inhibitors were measured using the MTase-Glo Methyltransferase assay kit (Promega). […] Finally, the luminescence signal was measured using a BioTek Synergy 2 Multi-Mode Microplate Reader. […] The IC50 values were determined using equation 1 and fit to a curve using GraFit 7.03. […]

Structure (SMILES)	IC50 [1] [µM]	IC50 [2] [µM]
CC(=O)N(CCO)CC(=O)NCC(=O)N(CCCNC(=N)CCl)CC(=O)NCC(=O)N(CCCCN)CC(=O)NCC(=O)NCC(=O)N(CCCCN)CC(=O)NCC(=O)N(CC(=O)NCC(=O)N(CCCCN)CC(=O)NCC(=O)NCC(=O)N(C)CC(=O)N(CCCCN)CC(N)=O)CC(C)C [AcH4-16 warhead peptoid] (Ac-[Gly(N-CH2CH2OH)]G[X1]G[Nlys]GG[Nlys]G[Nleu]G[Nlys]GG[Sar][Nlys]-NH2)	> 500	–
CC(C)CN(CC(=O)NCC(=O)N(CCCCN)CC(=O)NCC(=O)NCC(=O)N(C)CC(=O)N(CCCCN)CC(N)=O)C(=O)CNC(=O)CN(CCCCN)C(=O)CNC(=O)CNC(=O)CN(CCCCN)C(=O)CNC(=O)CN(CCCNC(=N)N)C(=O)CNC(=O)CNCCO [H4-16 peptoid] (H-[Gly(N-CH2CH2OH)]G[Gly(N-(CH2)3-guanidino)]G[Nlys]GG[Nlys]G[Nleu]G[Nlys]GG[Sar][Nlys]-NH2; C-terminus assumed)	> 1000	–
CC(=O)N[C@@H](CO)C(=O)NCC(=O)N[C@@H](CCCNC(=N)CCl)C(=O)NCC(=O)N[C@@H](CCCCN)C(=O)NCC(=O)NCC(=O)N[C@@H](CCCCN)C(=O)NCC(=O)N[C@@H](CC(C)C)C(=O)NCC(=O)N[C@@H](CCCCN)C(=O)NCC(=O)NCC(=O)N[C@@H](C)C(=O)N[C@@H](CCCCN)C(=O)O [acetylated H4-16 warhead peptide] (Ac-SG[X2]GKGGKGLGKGGAK-OH; C-terminus assumed)	–	46.9 ± 4.86
CC(C)C[C@H](NC(=O)CNC(=O)[C@H](CCCCN)NC(=O)CNC(=O)CNC(=O)[C@H](CCCCN)NC(=O)CNC(=O)[C@H](CCCNC(=N)CCl)NC(=O)CNC(=O)[C@@H](N)CO)C(=O)NCC(=O)N[C@@H](CCCCN)C(=O)NCC(=O)NCC(=O)N[C@@H](C)C(=O)N[C@@H](CCCCN)C(=O)O [unacetylated H4-16 warhead peptide] (H-SG[X2]GKGGKGLGKGGAK-OH; C-terminus assumed)	–	29.6 ± 5.16
